Measurements: patent US5593966A, “Peptide derivatives of cytochrome b558 and their use as medicaments” (The United States of America as represented by the …, priority 1990, dated 1997)
Part of at least one peptide drawing is inferred or uncertain, most often the ends. Some compounds share one wording; it may come from a single statement. Where a SMILES comes first, the peptide text is derived from it.

Key:
NADPH oxidase [1] = target: T1, NADPH oxidase (Homo sapiens, UniProt P14598); assay: Cell-free NADPH oxidase assay (arachidonate-stimulated O2 generation, neutrophil membrane plus cytosol); type: biochemical; conditions: for Inhibition of O2 production by additional control peptides: 250 μM peptide, not shown in the table
T1 construct: Neutrophils were electropermeabilized as described; endogenous in cells; host or cells: electropermeabilized peripheral blood neutrophils (PMN), stimulated with PMA or fMLP
T1 sequence (P14598 1-390): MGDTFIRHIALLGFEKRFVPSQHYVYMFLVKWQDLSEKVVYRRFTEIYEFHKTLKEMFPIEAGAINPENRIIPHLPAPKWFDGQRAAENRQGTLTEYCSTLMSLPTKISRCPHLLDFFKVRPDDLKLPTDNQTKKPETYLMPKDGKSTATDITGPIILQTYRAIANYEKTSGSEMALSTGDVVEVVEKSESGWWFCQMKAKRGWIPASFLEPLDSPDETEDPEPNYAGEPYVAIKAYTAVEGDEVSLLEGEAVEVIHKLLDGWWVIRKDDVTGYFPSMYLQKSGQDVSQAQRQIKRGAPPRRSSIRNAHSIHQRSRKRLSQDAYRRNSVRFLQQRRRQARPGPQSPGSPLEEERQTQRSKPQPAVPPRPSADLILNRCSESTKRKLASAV
Procedure: Neutrophils were isolated from peripheral blood and cytosol and membrane fractions were prepared by differential centrifugation as previously described (Nunoi et al, Science, 242, 1298-1301 (1988)). Typical yields of cytosol and membrane proteins obtained were 2.8±0.1 mg/10^8 cell equivalents and 1.5±0.1 μg/10^6 cell equivalents, respectively (mean±SD, 3 separate preparations). The cell-free assay of O2 generation was modified as follows: wells contained 2.5-5.0×10^5cell equivalents neutrophil membrane, 10^6 cell equivalents neutrophil cytosol in a final volume of 100 μl reaction mixture (150 μM acetylated ferricytochrome c (11), 4 mM MgCl2, 10 μM FAD, 1 mM EGTA, 200 μM NADPH, 40 μM arachidonic acid, 10 μM GTPγ S, ±25 μg/ml superoxide dismutase in 75 mM potassium phosphate, pH 7.0). Because membrane preparations varied in activity, the amount of membrane added per well was adjusted to yield an arachidonate-stimulated O2 production of ≈0.4 nmol/min/well in the absence of synthetic peptide. The maximal linear rate of superoxide dismutase-inhibitable acetylferricytochrome c reduction (ΔO.D. […]) was converted to nmol O2 generated/min using an instrument-corrected extinction coefficient derived empirically as described (Leslie, J. Immunol. Methods, 103, 253-259 (1987)). To measure oxidase inhibition by antibodies directed against the 91 kDa subunit of cytochrome b558 membranes were solubilized in 1% deoxycholate, incubated for 30 min on ice with an equal volume of serum at various dilutions. Diluting these samples 10-fold with H2 O lowered the detergent concentration below the CMC and allowed sedimentation (130,000 g×30 min) of an oxidase-competent membrane fraction. This fraction was resolubilized in deoxycholate, and assayed for arachidonate-stimulatedO2 generation in the presence of cytosol.
In Table 1 above, the cell-free assay of O2 generation contained 2.5-5.0×10^5 cell equivalents of neutrophil (PMN) membrane, 10^6 cell equivalents PMN cytosol in a final volume of 100 μl reaction mixture. Because membrane preparations varied in activity, the amount of membrane added per well was adjusted to yield an arachidonate-stimulated O2 production of ≈0.4 nmol/min/well in the absence of synthetic peptide. Data represent the mean percent inhibition obtained in n experiments (each performed in duplicate) in the presence of 100 μM synthetic peptide compared to a simultaneous buffer control.

NADPH oxidase [2] = target: T1, NADPH oxidase; assay: Permeabilized cell NADPH oxidase assay (electropermeabilized neutrophils stimulated with PMA or fMLP); type: cell-based
Procedure: Neutrophils were electropermeabilized as described (Grinstein et al, J. Biol. Chem., 263, 1779-1783 (1988)), incubated on ice for 30 min in permeabilization buffer (140 mM KCl, 1 mM MgCl2, 1 mM EGTA, 0.193 mM CaCl2, 1 mM ATP, 2 mM NADPH, 10 μM GTP, 10 mM glucose, 10 mM HEPES-N-methylglucamine, pH 7) supplemented with synthetic peptide (800 μM). The cells were resuspended at 5×10^6 /ml in the same buffer containing 200 μM synthetic peptide, 150 μM acetylferricytochrome c, catalase (2500 U/ml), ±25 μg/ml superoxide dismutase. Wells containing 5×10^5 cells were stimulated with PMA (10 ng/ml) or fMLP (10 μM) and O2^-- production was determined as above.
Electropermeabilized PMN were incubated on ice in permeabilization buffer supplemented with synthetic peptide (800 μM). The cells were resuspended at 5×10^6 /ml in the same buffer containing 200 μM synthetic peptide. Wells containing 5×10^5 cells were stimulated with PMA (10 ng/ml) or fMLP (10 μM) and O2 production was determined as described in "Experimental Procedures". […] Electropermeabilized PMN sham incubated without synthetic peptides and stimulated with […] or fMLP generated 8.4±1.1 nmol O2 /min/10^6 cells and 8.9±1.7 nmol O2 /min/10^6 cells, respectively (mean±SEM, 5 independent experiments).

Row | SMILES | Inhibition of O2 production by additional control peptides (NADPH oxidase [1]) | also measured
1 | CC[C@H](C)[C@H](NC(=O)[C@H](Cc1ccccc1)NC(=O)[C@H](Cc1c[nH]cn1)NC(=O)[C@@H](NC(=O)CNC(=O)[C@H](CCCNC(=N)N)NC(=O)[C@@H]1CCCN1C(=O)CNC(=O)[C@H](CO)NC(=O)[C@H](CCC(=O)O)NC(=O)[C@H](CO)NC(=O)[C@H](CC(N)=O)NC(=O)[C@H](CO)NC(=O)[C@@H](N)CS)C(C)C)C(=O)N[C@@H](Cc1ccccc1)C(=O)N[C@@H](CC(N)=O)C(=O)N[C@@H](CCCCN)C(=O)N[C@@H](CCC(=O)O)C(=O)N[C@@H](CC(N)=O)C(=O)N[C@@H](Cc1ccccc1)C(=O)O (H-CSNSESGPRGVHFIFNKENF-OH) | – | Dependence of inhibition on time of peptide addition (NADPH oxidase [1]; peptide added with arachidonic acid or 2 min after arachidonic acid): Inhibition occurred only when peptide was added to the assay before activation by arachidonate
2 | CC[C@H](C)[C@H](NC(=O)[C@H](Cc1c[nH]cn1)NC(=O)[C@H](CC(C)C)NC(=O)[C@H](CC(C)C)NC(=O)[C@H](CC(=O)O)NC(=O)[C@H](CC(=O)O)NC(=O)[C@H](CC(=O)O)NC(=O)[C@H](CO)NC(=O)[C@H](CC(=O)O)NC(=O)[C@H](CC(=O)O)NC(=O)[C@@H](N)CS)C(=O)O [CDDSDDDLLHI] (H-CDDSDDDLLHI-OH) | did not inhibit | –
3 | CC(C)C[C@H](NC(=O)[C@@H](NC(=O)[C@H](CCCNC(=N)N)NC(=O)[C@H](Cc1c[nH]c2ccccc12)NC(=O)[C@H](CC(N)=O)NC(=O)[C@H](CCC(=O)O)NC(=O)[C@H](CCC(=O)O)NC(=O)[C@H](CC(N)=O)NC(=O)[C@@H](NC(=O)[C@H](CCC(N)=O)NC(=O)[C@@H](N)CS)[C@@H](C)O)C(C)C)C(=O)N1CCC[C@H]1C(=O)O [CQTNEENWRVLP] (H-CQTNEENWRVLP-OH) | did not inhibit | –
4 | CSCC[C@H](NC(=O)[C@@H](NC(=O)[C@@H](NC(=O)[C@@H](NC(=O)[C@@H](NC(=O)[C@@H](N)CS)[C@@H](C)O)[C@@H](C)O)[C@@H](C)O)C(C)C)C(=O)N[C@@H](CC(N)=O)C(=O)N1CCC[C@H]1C(=O)N[C@@H](CCCCN)C(=O)N[C@@H](Cc1ccccc1)C(=O)N[C@@H](C)C(=O)N[C@@H](CCC(=O)O)C(=O)N[C@@H](CO)C(=O)O [CTTTVMNPKFAES] (H-CTTTVMNPKFAES-OH) | did not inhibit | –
5 | CC[C@H](C)[C@H](NC(=O)[C@H](Cc1ccccc1)NC(=O)[C@H](Cc1c[nH]cn1)NC(=O)[C@@H](NC(=O)CNC(=O)[C@@H](N)CCCNC(=N)N)C(C)C)C(=O)N[C@@H](Cc1ccccc1)C(=O)O [RGVHFIF, Arg--Gly--Val--His--Phe--Ile--Phe] (H-RGVHFIF-OH) | – | Inhibition of O2 production by electropermeabilized neutrophils (in words) (NADPH oxidase [2]): inhibited
